Experimental findings from publication PMC9688798, “Dual-Wavelength Fluorescence Polarization Immunoassay for Simultaneous Detection of Sulfonamides and Antibacterial Synergists in Milk” (Biosensors, 2022) are described below.

The data set is described as follows: DWFPIA of milk samples (LOD, detectable range, recovery). To be noted: for LOD: milk, mean of 20 blank controls plus three SD.
The mark [1] stands for this setting: blank milk spiked at 20 μg L^−1, n = 3.

As to `COc1cc(Cc2cnc(N)nc2N)cc(OC)c1OC` [TMP, Trimethoprim], the LOD was found to be 0.7 µg/L. For the setting “blank milk spiked at 5 μg L^−1, n = 3”, this molecule displayed a Recovery of 78.6%. Under setting [1], this molecule returned a Recovery of 103.6%. Under “blank milk spiked at 35 μg L^−1, n = 3”, this molecule displayed a Recovery of 90.5%.
For `Cc1cc(C)nc(NS(=O)(=O)c2ccc(N)cc2)n1` [SMZ, Sulfamethazine], the LOD was determined as 3.3 µg/L. Also, the Recovery under setting [1] is 81.7%. The Recovery (blank milk spiked at 50 μg L^−1, n = 3) is 97.2%. The same molecule had a Recovery (blank milk spiked at 100 μg L^−1, n = 3) of 84.5%.
